These are yes or no findings as the source states them, for the method shown. In cells and extracts the contact can be indirect. A result given as binding can be weak or reduced; the word gives no strength.
Biological target: hnRNP U ΔRBD-Flag (UniProt Q00839)
Experiment: co-IP; IP with the Flag antibody from cytoplasmic extracts of HCT116 cells transfected with flag-tagged hnRNP U WT, ΔRBD or empty vector, western blot

The chains behind the UniProt entries cited, without tags or fusion partners. Where a name states a change or a piece, a line headed by the entry shows the natural chain unless it says otherwise.
UniProt Q00839: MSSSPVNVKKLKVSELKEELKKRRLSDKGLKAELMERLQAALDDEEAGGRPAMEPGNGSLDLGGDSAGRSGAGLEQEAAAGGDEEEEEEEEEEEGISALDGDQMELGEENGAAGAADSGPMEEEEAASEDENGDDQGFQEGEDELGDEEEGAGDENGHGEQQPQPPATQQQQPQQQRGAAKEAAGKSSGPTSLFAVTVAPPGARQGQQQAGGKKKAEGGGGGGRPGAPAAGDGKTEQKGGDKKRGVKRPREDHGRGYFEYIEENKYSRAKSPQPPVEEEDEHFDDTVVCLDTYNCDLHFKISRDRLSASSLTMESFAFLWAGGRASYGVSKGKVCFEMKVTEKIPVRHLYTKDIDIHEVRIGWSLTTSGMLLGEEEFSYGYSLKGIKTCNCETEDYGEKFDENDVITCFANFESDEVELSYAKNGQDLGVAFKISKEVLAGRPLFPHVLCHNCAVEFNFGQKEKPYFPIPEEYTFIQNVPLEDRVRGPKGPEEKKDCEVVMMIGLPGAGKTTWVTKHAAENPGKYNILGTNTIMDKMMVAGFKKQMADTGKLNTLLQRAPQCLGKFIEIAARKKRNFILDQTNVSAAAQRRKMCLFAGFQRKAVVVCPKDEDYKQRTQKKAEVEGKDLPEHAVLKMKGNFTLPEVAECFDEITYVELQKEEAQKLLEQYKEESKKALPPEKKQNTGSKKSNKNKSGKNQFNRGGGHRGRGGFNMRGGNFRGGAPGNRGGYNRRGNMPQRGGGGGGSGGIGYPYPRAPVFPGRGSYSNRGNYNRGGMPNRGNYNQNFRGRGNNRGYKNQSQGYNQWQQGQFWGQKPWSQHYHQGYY
UniProt O00571: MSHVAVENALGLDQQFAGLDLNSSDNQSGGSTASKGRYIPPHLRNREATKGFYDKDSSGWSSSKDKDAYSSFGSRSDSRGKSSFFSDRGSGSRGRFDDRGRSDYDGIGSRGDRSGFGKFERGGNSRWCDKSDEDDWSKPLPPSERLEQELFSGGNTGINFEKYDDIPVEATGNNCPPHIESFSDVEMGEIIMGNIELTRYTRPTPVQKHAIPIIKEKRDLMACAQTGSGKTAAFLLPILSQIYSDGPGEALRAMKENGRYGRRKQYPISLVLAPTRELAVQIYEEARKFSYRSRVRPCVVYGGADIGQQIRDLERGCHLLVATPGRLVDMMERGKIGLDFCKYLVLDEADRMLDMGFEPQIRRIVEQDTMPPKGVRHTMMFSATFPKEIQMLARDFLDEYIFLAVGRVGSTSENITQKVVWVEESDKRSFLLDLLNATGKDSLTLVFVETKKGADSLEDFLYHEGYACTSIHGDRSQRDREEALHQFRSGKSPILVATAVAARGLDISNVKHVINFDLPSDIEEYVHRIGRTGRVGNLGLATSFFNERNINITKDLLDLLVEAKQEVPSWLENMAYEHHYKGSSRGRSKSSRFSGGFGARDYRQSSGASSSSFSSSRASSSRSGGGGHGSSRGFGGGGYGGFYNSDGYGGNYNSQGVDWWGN

Substance: DDX3X (from UniProt O00571 1-662)
- binding: binds

— paper PMC11977240
